# Test results: the supplement of paper PMC4604168 (melanoma cell lines)
# The other results are listed elsewhere or left out. Single values are uncertain, as repeats are few or missing.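 Cells were imaged in 1,536-well plates, and nuclei stained with an antibody against cleaved PARP were counted against all DNA-stained nuclei to give the apoptosis fraction. Screening doses were chosen to leave most cells alive, and resting and induced cleaved-PARP levels differ strongly between cell lines.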
# How the values were obtained:
# Assay in all cases: cleaved PARP positive nuclei fraction relative to DMSO control; melanoma cells; higher = more apoptosis
# Conditions in all cases: library dose: low library concentration; 72 h
# 501Mel = system: 501Mel
# A101D = system: A101D
# A2058 = system: A2058
# A375 = system: A375
# C32 = system: C32
# CBRC008 = system: CBRC008 (line from a melanoma biopsy)
# CBRC013 = system: CBRC013 (line from a melanoma biopsy)
# CBRC014 = system: CBRC014 (line from a melanoma biopsy)
# CBRC016 = system: CBRC016 (line from a melanoma biopsy)
# CBRC017 = system: CBRC017 (line from a melanoma biopsy)
# COLO792 = system: COLO792
# COLO800 = system: COLO800
# COLO829 = system: COLO829
# G361 = system: G361
# IPC-298 = system: IPC-298
# IST-MEL1 = system: IST-MEL1
# LB2518-MEL = system: LB2518-MEL
# LOXIMVI = system: LOXIMVI
# MEL-HO = system: MEL-HO
Structure (SMILES),cleaved PARP positive nuclei fraction (501Mel) [%],cleaved PARP positive nuclei fraction (A101D) [%],cleaved PARP positive nuclei fraction (A2058) [%],cleaved PARP positive nuclei fraction (A375) [%],cleaved PARP positive nuclei fraction (C32) [%],cleaved PARP positive nuclei fraction (CBRC008) [%],cleaved PARP positive nuclei fraction (CBRC013) [%],cleaved PARP positive nuclei fraction (CBRC014) [%],cleaved PARP positive nuclei fraction (CBRC016) [%],cleaved PARP positive nuclei fraction (CBRC017) [%],cleaved PARP positive nuclei fraction (COLO792) [%],cleaved PARP positive nuclei fraction (COLO800) [%],cleaved PARP positive nuclei fraction (COLO829) [%],cleaved PARP positive nuclei fraction (G361) [%],cleaved PARP positive nuclei fraction (IPC-298) [%],cleaved PARP positive nuclei fraction (IST-MEL1) [%],cleaved PARP positive nuclei fraction (LB2518-MEL) [%],cleaved PARP positive nuclei fraction (LOXIMVI) [%],cleaved PARP positive nuclei fraction (MEL-HO) [%]
"CCCS(=O)(=O)Nc1ccc(F)c(C(=O)c2c[nH]c3ncc(Cl)cc23)c1F + Cc1ccc(NC(=O)c2cccc(N(C)C)c2)cc1NC(=O)c1ccc(O)cc1 [ZM336372] (first compound 0.08 µM, partner dose 2 µM)",114,43.9,84.7,91.9,58.4,114,84.9,206,109,240,89.4,61.6,106,151,108,103,157,63.4,162
"C[C@@H](Oc1cc(-c2cnn(C3CCNCC3)c2)cnc1N)c1c(Cl)ccc(F)c1Cl [Crizotinib] + OCCn1cc(-c2cnc3nnn(Cc4ccc5ncccc5c4)c3n2)cn1 [PF04217903] (first compound 0.2 µM, partner dose 1 µM)",154,122,215,190,169,106,97.7,86.8,161,96.1,137,51.4,135,24.8,96.4,396,52.1,96.7,93.9
"CN1CCN(c2ccc3nc(-c4c(N)c5c(F)cccc5[nH]c4=O)[nH]c3c2)CC1 [Dovitinib] + CN(C)S(=O)(=O)c1ccc2c(c1)/C(=C/c1cc3c([nH]1)CCCC3)C(=O)N2 [SU6656] (first compound 0.1 µM, partner dose 0.4 µM)",97.5,146,285,164,79.4,66.8,127,98.7,81,86.8,111,107,65,203,98.9,178,108,102,54.1
"Cn1c(=O)n(-c2ccc(C(C)(C)C#N)cc2)c2c3cc(-c4cnc5ccccc5c4)ccc3ncc21 + CN(C)S(=O)(=O)c1ccc2c(c1)/C(=C/c1cc3c([nH]1)CCCC3)C(=O)N2 [SU6656] (first compound 0.004 µM, partner dose 0.4 µM)",77.1,85.9,296,30.3,103,137,65.3,92.1,92.1,68,87.6,279,106,122,44.3,93.6,62.7,71.9,114
"Nc1ncn([C@H]2C[C@H](O)[C@@H](CO)O2)c(=O)n1 [decitabine] + CC(C)(C)c1cnc(CSc2cnc(NC(=O)C3CCNCC3)s2)o1 [SNS-032] (first compound 0.1 µM, partner dose 0.01 µM)",157,172,69.5,195,129,134,136,93.1,97.3,217,126,174,87.3,157,127,236,95.9,32.4,211
"CN1CCN(c2ccc3nc(-c4c(N)c5c(F)cccc5[nH]c4=O)[nH]c3c2)CC1 [Dovitinib] + CN(NC(=O)CC(=O)NN(C)C(=S)c1ccccc1)C(=S)c1ccccc1 [STA4783] (first compound 0.1 µM, partner dose 0.006 µM)",250,294,51,1260,122,2130,222,548,134,175,171,29.3,80.8,73.4,67.3,136,119,47.5,86.5
"O=C(O)c1ccc2c(c1)nc(Nc1cccc(Cl)c1)c1ccncc12 + CN(C)S(=O)(=O)c1ccc2c(c1)/C(=C/c1cc3c([nH]1)CCCC3)C(=O)N2 [SU6656] (first compound 0.4 µM, partner dose 0.4 µM)",69.5,93.3,222,85.5,186,113,160,254,334,335,73.3,51,87.9,93.4,504,169,107,116,80.9
"CNC(=O)c1cc(Oc2ccc(NC(=O)Nc3ccc(Cl)c(C(F)(F)F)c3)cc2)ccn1 [sorafenib] + OCCn1cc(-c2cnc3nnn(Cc4ccc5ncccc5c4)c3n2)cn1 [PF04217903] (first compound 0.4 µM, partner dose 1 µM)",96.2,76.8,112,173,77.7,146,101,99.6,122,73,127,74.2,103,42,95.9,67.1,79.8,28.4,138

# Looked up above:
# CN1CCN(c2ccc3nc(-c4c(N)c5c(F)cccc5[nH]c4=O)[nH]c3c2)CC1 [Dovitinib] + CN(NC(=O)CC(=O)NN(C)C(=S)c1ccccc1)C(=S)c1ccccc1 [STA4783] (first compound 0.1 µM, partner dose 0.006 µM) – cleaved PARP positive nuclei fraction (COLO792) [%]: 171
# Cn1c(=O)n(-c2ccc(C(C)(C)C#N)cc2)c2c3cc(-c4cnc5ccccc5c4)ccc3ncc21 + CN(C)S(=O)(=O)c1ccc2c(c1)/C(=C/c1cc3c([nH]1)CCCC3)C(=O)N2 [SU6656] (first compound 0.004 µM, partner dose 0.4 µM) – cleaved PARP positive nuclei fraction (A375) [%]: 30.3
